Laboratory results published in patent US10688119B2, “Inhibitors of PCSK9 for treatment of lipoprotein metabolism disorders” (Aarhus Universitet, priority 2015, dated 2020).
Some of these results come from one statement about several compounds together.

Experiment: heparin affinity chromatography of PCSK9 and variants
Type: binding
Conditions: media of transfected CHO cells, batch elution
Protocol: Purified PCSK9 was loaded onto a 5 ml HiTrap Heparin HP column (GE Healthcare) in PBS. The column was connected to an Äkta Prime and washed with 5 column volumes of 10 mM NaH2PO4 (pH 7.4). PCSK9 was eluted using a linear gradient of 10 mM NaH2PO4 (pH 7.4) and 2 M NaCl and fractions were analyzed by SDS-PAGE. Based on the measured conductivity, the elution profile was transformed to a function of NaCl concentration using the transformation coefficient 0.065 mS/mM NaCl. PCSK9 was retained on the heparin column and eluted at a NaCl concentration of approximately 500 mM (FIG. 2E), indicating a strong and highly specific interaction with heparin.
In a different experiment, conditioned media from HepG2 cells were incubated with Heparin Sepharose CL-6B beads (GE Healthcare) in 10 mM NaH2PO4 (binding buffer). Following overnight incubation on a rotor at 4⊐ C, beads were washed in binding buffer before batch elution of heparin bound proteins in increasing concentration of NaCl. PCSK9 in input, flow through, and elution fractions were evaluated by Western blotting.
Conditioned media from CHO cells transfected with PCSK9 variants of interest were incubated with Heparin Sepharose CL-6B beads (GE Healthcare) in 10 mM NaH2PO4 (binding buffer). […]

Substance | NaCl of elution fractions from heparin beads [M]
Mutant R165R167: PCSK9 alanine substitution variant | 0.3 to 0.4
WT PCSK9: wild type human PCSK9 (SEQ ID NO: 1) | 0.3 to 0.4
